Reference: PubChem BioAssay AID686938 (Drosophila RNAi Screening Center, 2013)

Screen: 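Knock-downs reducing store-operated calcium influx in Drosophila cells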 (primary screen)
Cell system: Drosophila S2R+ cells
Reagents: long dsRNA against Drosophila genes, about 0.25 µg dsRNA per well, roughly 10,000 cells
Timing: 5 days of knock-down before the calcium assay
Challenge: thapsigargin (SERCA pump blocker) to empty calcium stores; entry signal taken 4 min after adding it
Read-out: 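Per-well fluo-4 fluorescence in two replicates, unnormalised, measured in resting cells and 4 min after store depletion by the SERCA blocker thapsigargin; ratio of the two present in few wells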
Scale: calcium entry signal: higher = stronger calcium signal after store depletion; entry to resting ratio: higher = more calcium entry relative to resting level; resting calcium signal: higher = higher resting calcium signal
Units: calcium entry signal in fluorescence units; resting calcium signal in fluorescence units
Active means: 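Hit if the duplicate-averaged plate z-score for entry over resting signal is under −3; wells with weak total dye signal (Fmax z < −2) or more than 5 off-targets removed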
Meaning of the calls: active = strongly reduced calcium entry; inactive = no strong reduction
In all, the deposit lists about 23,000 reagents; this is a random part of those with a known target gene and a result. Of all reagents, 75 (0.33%) got an active call. 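Raw plate signals without normalisation; calls rest on plate z-scores that were not deposited; ratio present for only 364 wells.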 Not stated in the record: the dose of the treatment.

lobo (lost boys) [DRSC14662] — calcium entry signal, replicate 1: 3.53e7; calcium entry signal, replicate 2: 7.23e7; resting calcium signal, replicate 1: 1.94e7; resting calcium signal, replicate 2: 3.00e7; activity call: inactive
lobo (lost boys) [DRSC14663] — calcium entry signal, replicate 1: 4.52e7; calcium entry signal, replicate 2: 7.52e7; resting calcium signal, replicate 1: 2.25e7; resting calcium signal, replicate 2: 3.03e7; activity call: inactive
CG6337 [DRSC06977] — calcium entry signal, replicate 1: 3.74e7; calcium entry signal, replicate 2: 4.97e7; resting calcium signal, replicate 1: 1.89e7; resting calcium signal, replicate 2: 2.10e7; activity call: inactive
CG6337 [DRSC21870] — calcium entry signal, replicate 1: 2.63e7; calcium entry signal, replicate 2: 6.60e7; resting calcium signal, replicate 1: 1.36e7; resting calcium signal, replicate 2: 2.84e7; activity call: inactive
CG11384 [DRSC18628] — calcium entry signal, replicate 1: 3.83e7; calcium entry signal, replicate 2: 3.81e7; entry to resting ratio: 2.2; resting calcium signal, replicate 1: 1.76e7; resting calcium signal, replicate 2: 1.70e7; activity call: inactive
sei (seizure) [DRSC04713] — calcium entry signal, replicate 1: 4.30e7; resting calcium signal, replicate 1: 2.15e7; activity call: inactive
eIF3a (eukaryotic translation initiation factor 3 subunit a) [DRSC12339] — calcium entry signal, replicate 1: 1.12e7; calcium entry signal, replicate 2: 1.53e7; resting calcium signal, replicate 1: 7.95e6; resting calcium signal, replicate 2: 1.05e7; activity call: inactive
BthD (BthD selenoprotein) [DRSC19395] — calcium entry signal, replicate 1: 4.42e7; calcium entry signal, replicate 2: 4.65e7; resting calcium signal, replicate 1: 1.96e7; resting calcium signal, replicate 2: 2.23e7; activity call: inactive
CG9626 [DRSC16525] — calcium entry signal, replicate 1: 2.67e7; calcium entry signal, replicate 2: 2.94e7; resting calcium signal, replicate 1: 1.22e7; resting calcium signal, replicate 2: 1.31e7; activity call: inactive
d4 [DRSC04881] — calcium entry signal, replicate 1: 2.91e7; resting calcium signal, replicate 1: 1.36e7; activity call: inactive
d4 [DRSC22674] — calcium entry signal, replicate 1: 3.80e7; calcium entry signal, replicate 2: 3.33e7; resting calcium signal, replicate 1: 1.89e7; resting calcium signal, replicate 2: 1.58e7; activity call: inactive
CG30159 [DRSC04981] — calcium entry signal, replicate 1: 4.06e7; resting calcium signal, replicate 1: 2.05e7; activity call: inactive
AOX4 (Aldehyde oxidase 4) [DRSC15337] — calcium entry signal, replicate 1: 2.39e7; calcium entry signal, replicate 2: 5.15e7; resting calcium signal, replicate 1: 1.25e7; resting calcium signal, replicate 2: 5.40e7; activity call: inactive
qkr54B (quaking related 54B) [DRSC07670] — calcium entry signal, replicate 1: 4.91e7; calcium entry signal, replicate 2: 5.11e7; resting calcium signal, replicate 1: 2.20e7; resting calcium signal, replicate 2: 2.28e7; activity call: inactive
CG14280 [DRSC14761] — calcium entry signal, replicate 1: 3.85e7; calcium entry signal, replicate 2: 4.11e7; resting calcium signal, replicate 1: 4.74e7; resting calcium signal, replicate 2: 1.91e7; activity call: inactive
Or85a (Odorant receptor 85a) [DRSC16764] — calcium entry signal, replicate 1: 3.25e7; calcium entry signal, replicate 2: 2.75e7; resting calcium signal, replicate 1: 1.67e7; resting calcium signal, replicate 2: 1.44e7; activity call: inactive
pod1 (pod1 coronin) [DRSC18362] — calcium entry signal, replicate 1: 3.98e7; calcium entry signal, replicate 2: 4.47e7; resting calcium signal, replicate 1: 1.97e7; resting calcium signal, replicate 2: 2.02e7; activity call: inactive
Osi24 (Osiris 24) [DRSC12275] — calcium entry signal, replicate 1: 4.32e7; calcium entry signal, replicate 2: 4.01e7; resting calcium signal, replicate 1: 2.06e7; resting calcium signal, replicate 2: 1.90e7; activity call: inactive
Ranbp16 [DRSC20160] — calcium entry signal, replicate 1: 3.40e7; calcium entry signal, replicate 2: 3.31e7; resting calcium signal, replicate 1: 1.70e7; resting calcium signal, replicate 2: 1.58e7; activity call: inactive
sc (scute) [DRSC18830] — calcium entry signal, replicate 1: 3.78e7; calcium entry signal, replicate 2: 3.70e7; entry to resting ratio: 2.3; resting calcium signal, replicate 1: 1.67e7; resting calcium signal, replicate 2: 1.60e7; activity call: inactive
Strump (Strumpellin) [DRSC09872] — calcium entry signal, replicate 1: 3.32e7; calcium entry signal, replicate 2: 4.75e7; resting calcium signal, replicate 1: 1.67e7; resting calcium signal, replicate 2: 1.88e7; activity call: inactive

Quoted from the entries so far (2 entries):
qkr54B (quaking related 54B) [DRSC07670] — calcium entry signal, replicate 1: 4.91e7; calcium entry signal, replicate 2: 5.11e7; resting calcium signal, replicate 1: 2.20e7; resting calcium signal, replicate 2: 2.28e7; activity call: inactive
CG14280 [DRSC14761] — calcium entry signal, replicate 1: 3.85e7; calcium entry signal, replicate 2: 4.11e7; resting calcium signal, replicate 1: 4.74e7; resting calcium signal, replicate 2: 1.91e7; activity call: inactive
